From the supplement of paper PMC7666118
The list shows a part of the results.

Amino acid sequences for entries named in this document (tags omitted). A change or cut given only in a name is not applied to a line headed by its entry.
UniProt Q5K651: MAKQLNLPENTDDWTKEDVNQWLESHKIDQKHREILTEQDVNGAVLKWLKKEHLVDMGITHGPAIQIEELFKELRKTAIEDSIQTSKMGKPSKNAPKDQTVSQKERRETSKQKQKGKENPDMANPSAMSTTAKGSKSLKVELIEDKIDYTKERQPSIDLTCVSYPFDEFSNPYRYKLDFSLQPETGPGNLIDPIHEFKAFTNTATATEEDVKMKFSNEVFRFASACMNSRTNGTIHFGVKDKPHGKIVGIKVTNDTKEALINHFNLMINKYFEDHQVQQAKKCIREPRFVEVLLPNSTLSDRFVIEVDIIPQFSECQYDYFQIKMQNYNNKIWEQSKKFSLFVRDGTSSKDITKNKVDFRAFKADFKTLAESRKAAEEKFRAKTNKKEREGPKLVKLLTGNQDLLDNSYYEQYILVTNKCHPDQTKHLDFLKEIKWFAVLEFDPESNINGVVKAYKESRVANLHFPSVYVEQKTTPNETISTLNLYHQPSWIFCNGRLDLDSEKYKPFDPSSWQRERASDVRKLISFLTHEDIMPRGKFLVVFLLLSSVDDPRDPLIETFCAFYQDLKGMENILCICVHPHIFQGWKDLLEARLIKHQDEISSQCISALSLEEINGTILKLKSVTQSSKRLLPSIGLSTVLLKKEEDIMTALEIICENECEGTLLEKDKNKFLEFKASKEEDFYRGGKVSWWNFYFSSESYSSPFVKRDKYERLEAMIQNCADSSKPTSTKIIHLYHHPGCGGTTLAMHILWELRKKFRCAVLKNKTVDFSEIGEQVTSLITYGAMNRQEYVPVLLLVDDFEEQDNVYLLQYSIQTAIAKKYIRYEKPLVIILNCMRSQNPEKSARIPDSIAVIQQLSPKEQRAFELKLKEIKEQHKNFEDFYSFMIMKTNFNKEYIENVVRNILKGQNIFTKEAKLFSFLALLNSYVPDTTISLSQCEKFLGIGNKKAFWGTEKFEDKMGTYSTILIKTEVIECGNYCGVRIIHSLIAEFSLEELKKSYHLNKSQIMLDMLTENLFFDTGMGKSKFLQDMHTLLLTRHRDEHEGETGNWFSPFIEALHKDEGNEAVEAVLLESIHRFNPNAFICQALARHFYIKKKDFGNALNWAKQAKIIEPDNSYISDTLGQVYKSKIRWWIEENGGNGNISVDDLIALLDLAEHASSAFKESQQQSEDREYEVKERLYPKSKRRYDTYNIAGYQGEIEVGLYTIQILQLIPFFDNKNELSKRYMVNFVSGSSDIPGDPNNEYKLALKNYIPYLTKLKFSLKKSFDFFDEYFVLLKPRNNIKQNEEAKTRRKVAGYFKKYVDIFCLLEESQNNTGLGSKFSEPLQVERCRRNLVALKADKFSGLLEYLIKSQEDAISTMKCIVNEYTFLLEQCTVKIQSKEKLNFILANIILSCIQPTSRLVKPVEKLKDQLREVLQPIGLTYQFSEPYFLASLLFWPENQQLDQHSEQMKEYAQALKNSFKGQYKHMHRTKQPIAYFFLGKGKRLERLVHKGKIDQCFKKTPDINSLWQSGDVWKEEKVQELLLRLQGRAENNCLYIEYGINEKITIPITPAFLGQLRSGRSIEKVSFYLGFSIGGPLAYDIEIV
UniProt Q96PM5: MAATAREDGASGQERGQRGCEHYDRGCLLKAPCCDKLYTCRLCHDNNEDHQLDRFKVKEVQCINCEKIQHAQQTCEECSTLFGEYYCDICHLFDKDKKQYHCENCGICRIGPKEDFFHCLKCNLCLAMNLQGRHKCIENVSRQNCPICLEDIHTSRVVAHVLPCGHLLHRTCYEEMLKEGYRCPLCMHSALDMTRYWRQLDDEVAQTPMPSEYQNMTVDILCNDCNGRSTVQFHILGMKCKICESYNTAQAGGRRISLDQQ
UniProt O00287: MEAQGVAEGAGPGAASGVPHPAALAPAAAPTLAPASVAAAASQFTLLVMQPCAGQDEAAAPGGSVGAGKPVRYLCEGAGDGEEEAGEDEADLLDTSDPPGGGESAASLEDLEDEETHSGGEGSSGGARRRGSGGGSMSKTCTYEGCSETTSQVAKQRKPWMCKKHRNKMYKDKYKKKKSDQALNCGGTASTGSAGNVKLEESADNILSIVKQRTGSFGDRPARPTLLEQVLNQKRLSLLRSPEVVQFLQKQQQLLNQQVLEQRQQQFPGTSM
UniProt Q9NS28: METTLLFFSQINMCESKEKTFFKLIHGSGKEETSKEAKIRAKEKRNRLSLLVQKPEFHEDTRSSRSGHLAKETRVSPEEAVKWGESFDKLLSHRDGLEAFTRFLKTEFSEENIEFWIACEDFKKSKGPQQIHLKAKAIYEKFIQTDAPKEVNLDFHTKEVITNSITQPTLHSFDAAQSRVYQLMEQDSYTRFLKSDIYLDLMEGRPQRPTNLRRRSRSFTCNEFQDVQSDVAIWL
UniProt O75582, whole entry, looked up: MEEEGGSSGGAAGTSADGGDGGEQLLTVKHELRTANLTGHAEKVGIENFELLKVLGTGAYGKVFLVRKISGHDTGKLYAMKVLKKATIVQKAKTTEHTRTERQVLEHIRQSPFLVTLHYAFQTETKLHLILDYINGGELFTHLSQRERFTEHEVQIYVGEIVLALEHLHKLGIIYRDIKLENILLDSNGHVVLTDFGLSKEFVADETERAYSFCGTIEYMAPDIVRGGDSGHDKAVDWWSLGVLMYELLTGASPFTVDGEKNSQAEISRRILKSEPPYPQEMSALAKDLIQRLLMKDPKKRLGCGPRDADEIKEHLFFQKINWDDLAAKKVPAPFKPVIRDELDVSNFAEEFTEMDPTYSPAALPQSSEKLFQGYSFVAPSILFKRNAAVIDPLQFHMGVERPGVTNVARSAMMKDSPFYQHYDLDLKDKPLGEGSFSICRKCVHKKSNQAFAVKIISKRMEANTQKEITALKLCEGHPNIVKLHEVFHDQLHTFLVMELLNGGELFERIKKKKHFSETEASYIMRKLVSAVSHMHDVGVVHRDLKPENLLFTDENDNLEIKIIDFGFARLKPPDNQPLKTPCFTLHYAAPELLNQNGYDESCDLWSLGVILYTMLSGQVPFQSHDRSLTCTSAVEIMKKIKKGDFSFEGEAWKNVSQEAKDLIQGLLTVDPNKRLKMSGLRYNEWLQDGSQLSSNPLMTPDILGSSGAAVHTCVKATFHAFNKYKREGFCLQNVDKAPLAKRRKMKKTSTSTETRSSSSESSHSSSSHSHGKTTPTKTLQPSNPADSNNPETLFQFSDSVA
UniProt O00422: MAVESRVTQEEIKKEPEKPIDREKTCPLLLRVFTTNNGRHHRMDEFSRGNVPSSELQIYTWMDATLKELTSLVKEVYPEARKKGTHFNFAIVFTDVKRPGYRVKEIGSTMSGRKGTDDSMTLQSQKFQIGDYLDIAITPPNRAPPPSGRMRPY
UniProt Q9H871: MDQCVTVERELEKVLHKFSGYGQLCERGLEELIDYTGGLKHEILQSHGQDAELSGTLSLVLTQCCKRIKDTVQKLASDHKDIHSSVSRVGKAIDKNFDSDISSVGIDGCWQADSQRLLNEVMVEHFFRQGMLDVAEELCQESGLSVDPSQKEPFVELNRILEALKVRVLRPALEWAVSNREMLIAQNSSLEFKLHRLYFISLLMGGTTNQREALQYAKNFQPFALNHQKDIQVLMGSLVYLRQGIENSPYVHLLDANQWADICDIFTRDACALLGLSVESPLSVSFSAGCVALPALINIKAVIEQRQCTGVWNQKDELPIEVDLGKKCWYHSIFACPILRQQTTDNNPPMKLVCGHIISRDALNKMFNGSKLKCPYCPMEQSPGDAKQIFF
UniProt P57060: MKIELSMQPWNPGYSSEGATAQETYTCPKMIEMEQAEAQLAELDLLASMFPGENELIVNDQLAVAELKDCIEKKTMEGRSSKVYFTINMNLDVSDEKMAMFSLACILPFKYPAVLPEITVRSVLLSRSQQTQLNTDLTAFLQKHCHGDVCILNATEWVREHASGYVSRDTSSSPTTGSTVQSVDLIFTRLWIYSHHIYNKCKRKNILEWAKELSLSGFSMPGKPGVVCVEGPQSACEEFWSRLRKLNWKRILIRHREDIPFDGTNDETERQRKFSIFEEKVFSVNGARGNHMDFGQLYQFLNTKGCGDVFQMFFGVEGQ
UniProt P05109: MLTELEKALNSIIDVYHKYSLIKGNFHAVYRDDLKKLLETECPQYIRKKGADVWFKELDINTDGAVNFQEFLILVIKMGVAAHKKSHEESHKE
UniProt Q5H9R7: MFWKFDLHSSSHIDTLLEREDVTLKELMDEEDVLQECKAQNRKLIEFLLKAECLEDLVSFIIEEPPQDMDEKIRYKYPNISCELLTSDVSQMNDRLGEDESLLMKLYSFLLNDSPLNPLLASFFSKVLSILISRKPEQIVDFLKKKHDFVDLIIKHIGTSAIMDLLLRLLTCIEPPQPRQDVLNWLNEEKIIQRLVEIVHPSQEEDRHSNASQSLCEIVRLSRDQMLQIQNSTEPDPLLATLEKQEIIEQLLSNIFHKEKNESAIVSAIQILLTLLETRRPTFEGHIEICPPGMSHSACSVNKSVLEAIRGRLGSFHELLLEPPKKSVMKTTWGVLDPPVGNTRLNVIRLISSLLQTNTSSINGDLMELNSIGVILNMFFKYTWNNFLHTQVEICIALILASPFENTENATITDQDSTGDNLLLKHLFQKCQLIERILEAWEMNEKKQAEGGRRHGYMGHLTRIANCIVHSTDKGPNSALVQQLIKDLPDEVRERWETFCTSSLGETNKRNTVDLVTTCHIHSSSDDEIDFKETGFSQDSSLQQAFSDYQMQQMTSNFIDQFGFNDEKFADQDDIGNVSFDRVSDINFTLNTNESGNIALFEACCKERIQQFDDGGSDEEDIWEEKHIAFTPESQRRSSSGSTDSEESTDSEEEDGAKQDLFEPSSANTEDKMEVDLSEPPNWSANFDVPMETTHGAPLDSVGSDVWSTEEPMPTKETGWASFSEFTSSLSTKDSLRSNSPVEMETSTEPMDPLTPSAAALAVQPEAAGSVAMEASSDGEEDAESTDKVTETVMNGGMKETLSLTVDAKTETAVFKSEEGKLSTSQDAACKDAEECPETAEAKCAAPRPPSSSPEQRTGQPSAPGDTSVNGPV
UniProt P53805: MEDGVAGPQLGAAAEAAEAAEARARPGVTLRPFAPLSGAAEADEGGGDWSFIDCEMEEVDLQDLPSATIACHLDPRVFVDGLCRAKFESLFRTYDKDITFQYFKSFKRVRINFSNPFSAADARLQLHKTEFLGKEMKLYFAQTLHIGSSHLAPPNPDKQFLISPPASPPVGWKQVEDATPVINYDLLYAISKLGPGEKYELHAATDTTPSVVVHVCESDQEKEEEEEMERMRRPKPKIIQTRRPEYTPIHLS
UniProt Q9H4A4: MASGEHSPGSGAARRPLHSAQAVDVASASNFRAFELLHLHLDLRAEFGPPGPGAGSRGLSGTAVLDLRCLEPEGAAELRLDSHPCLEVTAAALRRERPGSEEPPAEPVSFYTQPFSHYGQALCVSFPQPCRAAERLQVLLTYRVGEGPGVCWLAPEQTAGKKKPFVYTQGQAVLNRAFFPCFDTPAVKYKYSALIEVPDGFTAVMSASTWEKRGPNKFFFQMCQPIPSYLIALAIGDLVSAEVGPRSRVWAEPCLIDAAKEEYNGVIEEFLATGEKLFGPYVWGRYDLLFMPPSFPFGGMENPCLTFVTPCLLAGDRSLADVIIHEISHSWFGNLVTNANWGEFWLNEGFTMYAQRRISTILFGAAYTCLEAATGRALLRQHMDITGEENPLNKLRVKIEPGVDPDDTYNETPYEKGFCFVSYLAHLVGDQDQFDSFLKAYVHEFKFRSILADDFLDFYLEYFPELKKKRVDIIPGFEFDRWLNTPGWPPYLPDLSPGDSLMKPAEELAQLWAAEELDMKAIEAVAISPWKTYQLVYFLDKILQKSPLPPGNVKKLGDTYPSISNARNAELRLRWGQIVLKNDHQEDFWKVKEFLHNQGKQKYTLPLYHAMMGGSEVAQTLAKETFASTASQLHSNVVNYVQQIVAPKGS
UniProt Q8TA86: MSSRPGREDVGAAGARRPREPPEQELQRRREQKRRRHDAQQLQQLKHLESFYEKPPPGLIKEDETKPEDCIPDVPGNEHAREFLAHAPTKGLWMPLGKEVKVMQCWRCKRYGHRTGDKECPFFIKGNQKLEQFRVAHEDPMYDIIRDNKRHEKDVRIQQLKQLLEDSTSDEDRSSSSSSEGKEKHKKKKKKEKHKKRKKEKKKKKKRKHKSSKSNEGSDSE
UniProt P38159: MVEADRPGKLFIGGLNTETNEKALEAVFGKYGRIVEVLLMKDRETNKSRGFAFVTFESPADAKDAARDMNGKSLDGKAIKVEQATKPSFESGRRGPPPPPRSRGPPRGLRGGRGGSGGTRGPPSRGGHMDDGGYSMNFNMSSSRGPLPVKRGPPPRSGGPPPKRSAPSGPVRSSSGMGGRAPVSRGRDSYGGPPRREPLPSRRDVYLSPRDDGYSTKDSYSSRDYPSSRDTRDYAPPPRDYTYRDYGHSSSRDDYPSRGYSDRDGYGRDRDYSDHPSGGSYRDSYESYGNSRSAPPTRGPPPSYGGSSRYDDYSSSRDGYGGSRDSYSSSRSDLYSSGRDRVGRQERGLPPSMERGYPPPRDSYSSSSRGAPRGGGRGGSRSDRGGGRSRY

Compound: COc1ccc(Cn2ccc3ccc(C(=O)NO)cc32)cc1
Test: dose-dependent thermal stabilisation call (2D-TPP, DLPTP, 10% FDR) (binary (1 = stabilised)); higher = stabilised by the compound
Details: system: HL-60 intact cells; concentration range 0.04-10 µM

Row | Target | dose-dependent thermal stabilisation call
1 | RPL30 (UniProt P62888) | inactive: 0
2 | RPA1 (UniProt P27694) | inactive: 0
3 | RTN4IP1 (UniProt Q8WWV3) | inactive: 0
4 | SAMD9 (UniProt Q5K651) | inactive: 0
5 | RELA (UniProt Q04206) | inactive: 0
6 | RCHY1 (UniProt Q96PM5) | inactive: 0
7 | RPP38 (UniProt P78345) | inactive: 0
8 | RFXAP (UniProt O00287) | inactive: 0
9 | RPS6KB2 (UniProt Q9UBS0) | inactive: 0
10 | RNF167 (UniProt Q9H6Y7) | inactive: 0
11 | RGS18 (UniProt Q9NS28) | inactive: 0
12 | RNF10 (UniProt Q8N5U6) | inactive: 0
13 | RPS6KA5 (UniProt O75582) | inactive: 0
14 | SAP18 (UniProt O00422) | inactive: 0
15 | RMND5A (UniProt Q9H871) | inactive: 0
16 | RWDD2B (UniProt P57060) | inactive: 0
17 | RPP30 (UniProt P78346) | inactive: 0
18 | RIF1 (UniProt Q5UIP0) | inactive: 0
19 | RGS14 (UniProt O43566) | inactive: 0

Reprinted at random: 2 records from the list
Row | Target | dose-dependent thermal stabilisation call
13 | RPS6KA5 (UniProt O75582) | inactive: 0
5 | RELA (UniProt Q04206) | inactive: 0

More entries follow.

Row | Target | dose-dependent thermal stabilisation call
20 | RPL18 (UniProt Q07020) | inactive: 0
21 | S100A8 (UniProt P05109) | inactive: 0
22 | SAPS3 (UniProt Q5H9R7) | inactive: 0
23 | RNMTL1 (UniProt Q9HC36) | inactive: 0
24 | RNF181 (UniProt Q9P0P0) | inactive: 0
25 | RNF31 (UniProt Q96EP0) | inactive: 0
26 | RPL37A (UniProt P61513) | inactive: 0
27 | RNF219 (UniProt Q5W0B1) | inactive: 0
28 | RCAN1 (UniProt P53805) | inactive: 0
29 | RPL11 (UniProt P62913) | inactive: 0
30 | RINT1 (UniProt Q6NUQ1) | inactive: 0
31 | RNPEP (UniProt Q9H4A4) | inactive: 0
32 | RCL1 (UniProt Q9Y2P8) | inactive: 0
33 | RFC2 (UniProt P35250) | inactive: 0
34 | RPS27A (UniProt P62979) | inactive: 0
35 | RP9 (UniProt Q8TA86) | inactive: 0
36 | RBMX (UniProt P38159) | inactive: 0
37 | RPL38 (UniProt P63173) | inactive: 0
38 | RQCD1 (UniProt Q92600) | inactive: 0
